# PubChem BioAssay AID602196, INSERM | 2012
# Purpose: 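Genes whose knock-down alters cisplatin killing of lung cancer cells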
# Cell system: human A549 lung cancer cells
# Reagents: siRNA pair against human genes
# Timing: 48 h transfection before cisplatin; time from cisplatin to read-out not stated
# Challenge: cisplatin at a dose killing half of control-siRNA cells; exact dose and duration not given
# Measurement: 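Cisplatin cell death as a shift from the 50% death seen with control siRNA; siRNAs toxic or growth-blocking alone scored 0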
# Direction: two-siRNA summed score (-2 to +2): higher = both siRNAs protect from cisplatin killing; -2 means both sensitise; mean protection from cisplatin (shift in death): higher = protection from cisplatin killing
# Hit rule: 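siRNAs harmful alone (LDH or WST-1) get 0; others get +1 for less and -1 for more cisplatin killing; genes are active when the two siRNAs give the same sign, summing to ±2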
# Calls: active = both siRNAs shift cisplatin killing the same way; inactive = no consistent shift, or siRNA harmful alone
# The whole screen tested about 23,000 reagents; below is a random part of them. In the full data, 455 (2%) got an active call. 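Active includes both protection and sensitisation; some change values fall well beyond the stated -50 to +50 range.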 Entries without a mark were called inactive. Not all columns of the deposit are shown. The record does not give: the amount of reagent.
gene symbol,two-siRNA summed score (-2 to +2),mean protection from cisplatin (shift in death) (%)
CIPC (CLOCK interacting pacemaker),0,4.9
OR4K15 (olfactory receptor family 4 subfamily K member 15),0,-0.3
WIPF1 (WAS/WASL interacting protein family member 1),0,6
LOC440007,0,32.7
KCNK12 (potassium two pore domain channel subfamily K member 12),-1,-16
"WRAP73 (WD repeat containing, antisense to TP73)",1,13.9
RNPS1 (RNA binding protein with serine rich domain 1),0,-2.9
OR1J1 (olfactory receptor family 1 subfamily J member 1),-1,0
LOC389772,0,7.7
MAU2,0,16.9
CLDN12 (claudin 12),0,8.5
CHRNA10 (cholinergic receptor nicotinic alpha 10 subunit),0,-0.8
HBG2 (hemoglobin subunit gamma 2),0,2
ANKRD44 (ankyrin repeat domain 44),-1,-2.3
LOC440338,0,9.1
CIMAP2 (ciliary microtubule associated protein 2),0,1.3
HPX (hemopexin),-1,-18.7
CIMIP2A (ciliary microtubule inner protein 2A),0,14.1
OR52E5 (olfactory receptor family 52 subfamily E member 5),2 (active),26.7
LAG3 (lymphocyte activating 3),0,-3
LOC107984784,0,5.1
LOC401191,2 (active),22.3
CPA4 (carboxypeptidase A4),0,-7.5
HNRNPABP1 (heterogeneous nuclear ribonucleoprotein A/B pseudogene 1),0,9.4
LOC388799,0,26.6
SERPINC1 (serpin family C member 1),0,19.1
LOC196415,0,2.5
ADAM2 (ADAM metallopeptidase domain 2),0,-13.6
ACTR3 (actin related protein 3),0,15.1
LOC441371,1,11.1
UBAP2 (ubiquitin associated protein 2),1,28
COL6A3 (collagen type VI alpha 3 chain),0,12.8
RPS2P56 (RPS2 pseudogene 56),0,7
PRPF40B (pre-mRNA processing factor 40B),0,0.1
MNT (MAX network transcriptional repressor),0,-0.3
ABHD14A (abhydrolase domain containing 14A),0,11.6
WDR91 (WD repeat domain 91),0,10.7
COMMD8 (COMM domain containing 8),0,4.1
LOC146909,0,2.9

Just “two-siRNA summed score (-2 to +2)”, for 2 of the entries above:
CHRNA10 (cholinergic receptor nicotinic alpha 10 subunit): 0
HBG2 (hemoglobin subunit gamma 2): 0
